# The supplement of paper PMC8728848
# The other results are listed elsewhere or left out.
# How the values were obtained:
# Test in all cases: glycan array binding signal (z-score within array); higher = stronger binding
# Conditions in all cases: glycan notation: IUPAC condensed, linker removed
# [1] = target: GalNAc(b1-4)GlcNAc(b1-2)Man
# Procedure, shortened: (§1)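 Negative Z-scores can be read as non-binding. The Z-score is calculated within each array and then averaged across arrays of one protein sequence at different concentrations or buffers and across linkers. Arrays, 3228 in all, were curated from the Consortium for Functional Glycomics database and kept only where the protein sequence was available.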
# [2] = target: GalNAc(b1-4)GlcNAc(b1-2)Man(a1-3)[GalNAc(b1-4)GlcNAc(b1-2)Man(a1-6)]Man(b1-4)GlcNAc(b1-4)GlcNAc
# Procedure, shortened: as §1
# [3] = target: GalNAc(b1-4)GlcNAc(b1-3)GalNAc(b1-4)GlcNAc
# Procedure, shortened: as §1
# GalNAc(b1-4)GlcNAc6S = target: GalNAc(b1-4)GlcNAc6S
# Procedure, shortened: as §1
# GalNAc(b1-6)GalNAc = target: GalNAc(b1-6)GalNAc
# Procedure, shortened: as §1
# GalNAc3S(b1-4)GlcNAc = target: GalNAc3S(b1-4)GlcNAc
# Procedure, shortened: as §1
# GalNAc3S(b1-4)GlcNAc3S = target: GalNAc3S(b1-4)GlcNAc3S
# Procedure, shortened: as §1
# [4] = target: GalNAc3S(b1-4)[Fuc(a1-3)]GlcNAc
# Procedure, shortened: as §1
# GalNAc4S6S(b1-4)GlcNAc = target: GalNAc4S6S(b1-4)GlcNAc
# Procedure, shortened: as §1
# GalNAc6S(b1-4)GlcNAc = target: GalNAc6S(b1-4)GlcNAc
# Procedure, shortened: as §1
# Glc(a1-4)Glc = target: Glc(a1-4)Glc
# Procedure, shortened: as §1
# [5] = target: Glc(a1-4)Glc(a1-4)Glc(a1-4)Glc
# Procedure, shortened: as §1
# Glc(a1-6)Glc(a1-6)Glc = target: Glc(a1-6)Glc(a1-6)Glc
# Procedure, shortened: as §1
# [6] = target: Glc(a1-6)Glc(a1-6)Glc(a1-6)Glc
# Procedure, shortened: as §1
# Glc(b1-4)Glc = target: Glc(b1-4)Glc
# Procedure, shortened: as §1
# Glc(b1-6)Glc = target: Glc(b1-6)Glc
# Procedure, shortened: as §1
# GlcA(b1-3)Gal = target: GlcA(b1-3)Gal
# Procedure, shortened: as §1
# GlcA(b1-3)GlcNAc = target: GlcA(b1-3)GlcNAc
# Procedure, shortened: as §1
# GlcA(b1-6)Gal = target: GlcA(b1-6)Gal
# Procedure, shortened: as §1
# [7] = target: GlcA3S(b1-3)Gal(b1-4)GlcNAc(b1-2)Man
# Procedure, shortened: as §1
# [8] = target: GlcA3S(b1-3)Gal(b1-4)GlcNAc(b1-3)Gal(b1-4)Glc
# Procedure, shortened: as §1
# [9] = target: GlcNAc(a1-3)Gal(b1-4)GlcNAc
# Procedure, shortened: as §1
# [10] = target: GlcNAc(a1-4)Gal(b1-3)GlcNAc
# Procedure, shortened: as §1
# [11] = target: GlcNAc(a1-4)Gal(b1-4)GalNAc
# Procedure, shortened: as §1
# [12] = target: GlcNAc(a1-4)Gal(b1-4)GlcNAc
# Procedure, shortened: as §1
# [13] = target: GlcNAc(a1-4)Gal(b1-4)GlcNAc(b1-3)Gal(b1-4)Glc
# Procedure, shortened: as §1
# [14] = target: GlcNAc(a1-4)Gal(b1-4)GlcNAc(b1-3)Gal(b1-4)GlcNAc
# Procedure, shortened: as §1
# [15] = target: GlcNAc(a1-4)Gal(b1-4)GlcNAc(b1-3)Gal(b1-4)GlcNAc(b1-3)Gal(b1-4)GlcNAc
# Procedure, shortened: as §1
# [16] = target: GlcNAc(a1-4)Gal(b1-4)GlcNAc(b1-3)Gal(b1-4)[Fuc(a1-3)]GlcNAc(b1-3)Gal(b1-4)[Fuc(a1-3)]GlcNAc
# Procedure, shortened: as §1
# [17] = target: GlcNAc(a1-6)Gal(b1-4)GlcNAc
# Procedure, shortened: as §1
# [18] = target: GlcNAc(b1-2)Gal(b1-3)GalNAc
# Procedure, shortened: as §1
# [19] = target: GlcNAc(b1-2)Man(a1-3)[GlcNAc(b1-2)Man(a1-6)]Man(b1-4)GlcNAc(b1-4)GlcNAc
# Procedure, shortened: as §1
# [20] = target: GlcNAc(b1-2)Man(a1-3)[GlcNAc(b1-2)Man(a1-6)]Man(b1-4)GlcNAc(b1-4)[Fuc(a1-6)]GlcNAc
# Procedure, shortened: as §1
# [21] = target: GlcNAc(b1-2)Man(a1-3)[GlcNAc(b1-4)][GlcNAc(b1-2)Man(a1-6)]Man(b1-4)GlcNAc(b1-4)GlcNAc
# Procedure, shortened: as §1
# [22] = target: GlcNAc(b1-2)Man(a1-3)[GlcNAc(b1-4)][GlcNAc(b1-2)Man(a1-6)]Man(b1-4)GlcNAc(b1-4)[Fuc(a1-6)]GlcNAc
# Procedure, shortened: as §1
# [23] = target: GlcNAc(b1-2)[GlcNAc(b1-4)]Man(a1-3)[GlcNAc(b1-2)Man(a1-6)]Man(b1-4)GlcNAc(b1-4)GlcNAc
# Procedure, shortened: as §1
# [24] = target: GlcNAc(b1-2)[GlcNAc(b1-4)]Man(a1-3)[GlcNAc(b1-4)][GlcNAc(b1-2)Man(a1-6)]Man(b1-4)GlcNAc(b1-4)GlcNAc
# Procedure, shortened: as §1
# [25] = target: GlcNAc(b1-2)[GlcNAc(b1-4)]Man(a1-3)[GlcNAc(b1-4)][GlcNAc(b1-2)[GlcNAc(b1-6)]Man(a1-6)]Man(b1-4)GlcNAc(b1-4)GlcNAc
# Procedure, shortened: as §1
# [26] = target: GlcNAc(b1-2)[GlcNAc(b1-4)]Man(a1-3)[GlcNAc(b1-4)][GlcNAc(b1-2)[GlcNAc(b1-6)]Man(a1-6)]Man(b1-4)GlcNAc(b1-4)[Fuc(a1-6)]GlcNAc
# Procedure, shortened: as §1
# [27] = target: GlcNAc(b1-2)[GlcNAc(b1-6)]Man(a1-6)[GlcNAc(b1-2)Man(a1-3)]Man(b1-4)GlcNAc(b1-4)GlcNAc
# Procedure, shortened: as §1
# [28] = target: GlcNAc(b1-2)[GlcNAc(b1-6)]Man(a1-6)[GlcNAc(b1-2)Man(a1-3)]Man(b1-4)GlcNAc(b1-4)[Fuc(a1-6)]GlcNAc
# Procedure, shortened: as §1
# [29] = target: GlcNAc(b1-2)[GlcNAc(b1-6)]Man(a1-6)[GlcNAc(b1-4)][GlcNAc(b1-2)Man(a1-3)]Man(b1-4)GlcNAc(b1-4)GlcNAc
# Procedure, shortened: as §1
# GlcNAc(b1-3)Fuc = target: GlcNAc(b1-3)Fuc
# Procedure, shortened: as §1
# GlcNAc(b1-3)Gal = target: GlcNAc(b1-3)Gal
# Procedure, shortened: as §1
# [30] = target: GlcNAc(b1-3)Gal(b1-3)GalNAc
# Procedure, shortened: as §1
binder,measurement,setting,value
pilr alpha (protein) MLYGVTQPKHLSASMGGSVEIPFSFYYPWELATAPDVRISWRRGHFHRQSFYSTRPPSIHKDYVNRLFLNWTEGQKSGFLRISNLQKQDQSVYFCRVELDTRSSGRQQWQSIEGTKLSIT,glycan array binding signal (z-score),[1],-0.351
same,glycan array binding signal (z-score),[2],0.029
same,glycan array binding signal (z-score),[3],-0.695
same,glycan array binding signal (z-score),GalNAc(b1-4)GlcNAc6S,-0.266
same,glycan array binding signal (z-score),GalNAc(b1-6)GalNAc,0.632
same,glycan array binding signal (z-score),GalNAc3S(b1-4)GlcNAc,-0.736
same,glycan array binding signal (z-score),GalNAc3S(b1-4)GlcNAc3S,-0.48
same,glycan array binding signal (z-score),[4],0.061
same,glycan array binding signal (z-score),GalNAc4S6S(b1-4)GlcNAc,-0.748
same,glycan array binding signal (z-score),GalNAc6S(b1-4)GlcNAc,-0.996
same,glycan array binding signal (z-score),Glc(a1-4)Glc,-0.097
same,glycan array binding signal (z-score),[5],-0.727
same,glycan array binding signal (z-score),Glc(a1-6)Glc(a1-6)Glc,-0.27
same,glycan array binding signal (z-score),[6],0.34
same,glycan array binding signal (z-score),Glc(b1-4)Glc,-0.012
same,glycan array binding signal (z-score),Glc(b1-6)Glc,0.346
same,glycan array binding signal (z-score),GlcA(b1-3)Gal,-0.13
same,glycan array binding signal (z-score),GlcA(b1-3)GlcNAc,-0.74
same,glycan array binding signal (z-score),GlcA(b1-6)Gal,0.717
same,glycan array binding signal (z-score),[7],-0.175
same,glycan array binding signal (z-score),[8],-0.369
same,glycan array binding signal (z-score),[9],0.257
same,glycan array binding signal (z-score),[10],-0.739
same,glycan array binding signal (z-score),[11],0.004
same,glycan array binding signal (z-score),[12],0.713
same,glycan array binding signal (z-score),[13],-0.435
same,glycan array binding signal (z-score),[14],1
same,glycan array binding signal (z-score),[15],0.089
same,glycan array binding signal (z-score),[16],0.876
same,glycan array binding signal (z-score),[17],0.076
same,glycan array binding signal (z-score),[18],-0.313
same,glycan array binding signal (z-score),[19],0.089
same,glycan array binding signal (z-score),[20],-0.223
same,glycan array binding signal (z-score),[21],-0.774
same,glycan array binding signal (z-score),[22],0.109
same,glycan array binding signal (z-score),[23],-0.534
same,glycan array binding signal (z-score),[24],-0.801
same,glycan array binding signal (z-score),[25],0.141
same,glycan array binding signal (z-score),[26],-0.583
same,glycan array binding signal (z-score),[27],-0.365
same,glycan array binding signal (z-score),[28],-0.2
same,glycan array binding signal (z-score),[29],-0.182
same,glycan array binding signal (z-score),GlcNAc(b1-3)Fuc,1.32
same,glycan array binding signal (z-score),GlcNAc(b1-3)Gal,-0.165
same,glycan array binding signal (z-score),[30],-0.214
